# Experimental data as given in the supplement of paper PMC8728848.
# The list shows a part of the results.
# B1: ERGIC1-EDTA (Homo sapiens), Q969X5 (protein)
# chain: MKFLVNVALVFMVVYISYIYAAAHMHHHHHHDYDIPTTENLYFQGSEVVNELYVDDPDKDSGGKIDVSLNISLPNLHCELVGLDIQDEMGRHEVGHIDNSMKIPLNNGAGCRFEGQFSINKVPGNFHVSTHSATAQPQNPDMTHVIHKLSFGDTLQVQNIHGAFNALGGADRLTSNPLASHDYILKIVPTVYEDKSGKQRYSYQYTVANKEYVAYSHTGRIIPAIWFRYDLSPITVKYTE
# Legend:
# Assay in all cases: glycan array binding signal (z-score within array); higher = stronger binding
# Conditions in all cases: glycan notation: IUPAC condensed, linker removed
# [1] = target: Fuc(a1-2)[GalNAc(a1-3)]Gal(b1-3)GlcNAc(b1-3)GalNAc
# Summary of the method: (§1)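 From the Consortium for Functional Glycomics database, 3228 arrays were curated, keeping only those whose protein sequence was available. Binding is given as a within-array Z-score averaged across arrays sharing a protein sequence and across linkers. Negative Z-scores can be read as non-binding.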
# [2] = target: Fuc(a1-2)[GalNAc(a1-3)]Gal(b1-3)GlcNAc(b1-6)GalNAc
# Summary of the method: as §1
# [3] = target: Fuc(a1-2)[GalNAc(a1-3)]Gal(b1-4)Glc
# Summary of the method: as §1
# [4] = target: Fuc(a1-2)[GalNAc(a1-3)]Gal(b1-4)GlcNAc
# Summary of the method: as §1
# [5] = target: Fuc(a1-2)[GalNAc(a1-3)]Gal(b1-4)GlcNAc(b1-2)Man
# Summary of the method: as §1
# [6] = target: Fuc(a1-2)[GalNAc(a1-3)]Gal(b1-4)GlcNAc(b1-2)Man(a1-3)[Fuc(a1-2)[GalNAc(a1-3)]Gal(b1-4)GlcNAc(b1-2)Man(a1-6)]Man(b1-4)GlcNAc(b1-4)GlcNAc
# Summary of the method: as §1
# [7] = target: Fuc(a1-2)[GalNAc(a1-3)]Gal(b1-4)GlcNAc(b1-2)Man(a1-3)[Fuc(a1-2)[GalNAc(a1-3)]Gal(b1-4)GlcNAc(b1-2)Man(a1-6)]Man(b1-4)GlcNAc(b1-4)[Fuc(a1-6)]GlcNAc
# Summary of the method: as §1
# [8] = target: Fuc(a1-2)[GalNAc(a1-3)]Gal(b1-4)GlcNAc(b1-3)Gal(b1-4)GlcNAc
# Summary of the method: as §1
# [9] = target: Fuc(a1-2)[GalNAc(a1-3)]Gal(b1-4)GlcNAc(b1-3)Gal(b1-4)GlcNAc(b1-3)Gal(b1-4)GlcNAc
# Summary of the method: as §1
# [10] = target: Fuc(a1-2)[GalNAc(a1-3)]Gal(b1-4)GlcNAc(b1-3)GalNAc
# Summary of the method: as §1
# [11] = target: Fuc(a1-2)[GalNAc(a1-3)]Gal(b1-4)GlcNAc(b1-3)[Fuc(a1-2)[GalNAc(a1-3)]Gal(b1-4)GlcNAc(b1-6)]GalNAc
# Summary of the method: as §1
# [12] = target: Fuc(a1-2)[GalNAc(a1-3)]Gal(b1-4)GlcNAc(b1-6)GalNAc
# Summary of the method: as §1
# [13] = target: Fuc(a1-2)[GalNAc(a1-3)]Gal(b1-4)[Fuc(a1-3)]GlcNAc
# Summary of the method: as §1
# [14] = target: Fuc(a1-2)[GalNAc(a1-3)]Gal(b1-4)[Fuc(a1-3)]GlcNAc(b1-3)GalNAc
# Summary of the method: as §1
# [15] = target: Fuc(a1-2)[GalNAc(a1-4)]Gal(b1-4)GlcNAc
# Summary of the method: as §1
# [16] = target: Fuc(a1-2)[GalNAc(b1-3)]Gal
# Summary of the method: as §1
# Fuc(a1-3)GlcNAc = target: Fuc(a1-3)GlcNAc
# Summary of the method: as §1
# [17] = target: Fuc(a1-3)[Gal(b1-4)]Glc6S
# Summary of the method: as §1
# [18] = target: Fuc(a1-3)[Gal(b1-4)]GlcNAc
# Summary of the method: as §1
# [19] = target: Fuc(a1-3)[Gal(b1-4)]GlcNAc(b1-2)Man
# Summary of the method: as §1
# [20] = target: Fuc(a1-3)[Gal(b1-4)]GlcNAc(b1-2)Man(a1-3)[Fuc(a1-3)[Gal(b1-4)]GlcNAc(b1-2)Man(a1-6)]Man(b1-4)GlcNAc(b1-4)GlcNAc
# Summary of the method: as §1
# [21] = target: Fuc(a1-3)[Gal(b1-4)]GlcNAc(b1-2)Man(a1-3)[Fuc(a1-3)[Gal(b1-4)]GlcNAc(b1-2)Man(a1-6)]Man(b1-4)GlcNAc(b1-4)[Fuc(a1-6)]GlcNAc
# Summary of the method: as §1
# [22] = target: Fuc(a1-3)[Gal(b1-4)]GlcNAc(b1-3)Gal(b1-3)[Fuc(a1-4)]GlcNAc
# Summary of the method: as §1
# [23] = target: Fuc(a1-3)[Gal(b1-4)]GlcNAc(b1-3)Gal(b1-4)[Fuc(a1-3)]GlcNAc
# Summary of the method: as §1
# [24] = target: Fuc(a1-3)[Gal(b1-4)]GlcNAc(b1-3)Gal(b1-4)[Fuc(a1-3)]GlcNAc(b1-3)Gal(b1-4)[Fuc(a1-3)]GlcNAc
# Summary of the method: as §1
# [25] = target: Fuc(a1-3)[Gal(b1-4)]GlcNAc(b1-3)GalNAc
# Summary of the method: as §1
# [26] = target: Fuc(a1-3)[Gal(b1-4)]GlcNAc(b1-6)GalNAc
# Summary of the method: as §1
# [27] = target: Fuc(a1-3)[Gal(b1-4)]GlcNAc(b1-6)[Gal(b1-3)GlcNAc(b1-3)]Gal(b1-4)Glc
# Summary of the method: as §1
# [28] = target: Fuc(a1-3)[Gal(b1-4)]GlcNAc6S
# Summary of the method: as §1
# [29] = target: Fuc(a1-3)[Gal3S(b1-4)]Glc
# Summary of the method: as §1
# [30] = target: Fuc(a1-3)[Gal3S(b1-4)]GlcNAc
# Summary of the method: as §1
# [31] = target: Fuc(a1-3)[Gal3S(b1-4)]GlcNAc6S
# Summary of the method: as §1
# [32] = target: Fuc(a1-3)[GalNAc(b1-4)]GlcNAc
# Summary of the method: as §1
# [33] = target: Fuc(a1-3)[GalNAc(b1-4)]GlcNAc6S
# Summary of the method: as §1
# Fuc(a1-4)GlcNAc = target: Fuc(a1-4)GlcNAc
# Summary of the method: as §1
# Fuc(b1-3)GlcNAc = target: Fuc(b1-3)GlcNAc
# Summary of the method: as §1
# Gal(a1-2)Gal = target: Gal(a1-2)Gal
# Summary of the method: as §1
binder,measurement,setting,value
B1,glycan array binding signal (z-score),[1],0.087
same,glycan array binding signal (z-score),[2],0.24
same,glycan array binding signal (z-score),[3],-0.32
same,glycan array binding signal (z-score),[4],-0.209
same,glycan array binding signal (z-score),[5],-0.903
same,glycan array binding signal (z-score),[6],0.438
same,glycan array binding signal (z-score),[7],2.25
same,glycan array binding signal (z-score),[8],0.213
same,glycan array binding signal (z-score),[9],0.601
same,glycan array binding signal (z-score),[10],0.4
same,glycan array binding signal (z-score),[11],0.33
same,glycan array binding signal (z-score),[12],0.023
same,glycan array binding signal (z-score),[13],0.399
same,glycan array binding signal (z-score),[14],1.98
same,glycan array binding signal (z-score),[15],-1.28
same,glycan array binding signal (z-score),[16],0.059
same,glycan array binding signal (z-score),Fuc(a1-3)GlcNAc,-0.758
same,glycan array binding signal (z-score),[17],-0.196
same,glycan array binding signal (z-score),[18],-0.323
same,glycan array binding signal (z-score),[19],-0.689
same,glycan array binding signal (z-score),[20],1.5
same,glycan array binding signal (z-score),[21],1.16
same,glycan array binding signal (z-score),[22],-0.682
same,glycan array binding signal (z-score),[23],-0.231
same,glycan array binding signal (z-score),[24],-1.38
same,glycan array binding signal (z-score),[25],-0.501
same,glycan array binding signal (z-score),[26],0.232
same,glycan array binding signal (z-score),[27],0.292
same,glycan array binding signal (z-score),[28],0.783
same,glycan array binding signal (z-score),[29],0.164
same,glycan array binding signal (z-score),[30],0.249
same,glycan array binding signal (z-score),[31],0.531
same,glycan array binding signal (z-score),[32],0.462
same,glycan array binding signal (z-score),[33],-0.543
same,glycan array binding signal (z-score),Fuc(a1-4)GlcNAc,-1.01
same,glycan array binding signal (z-score),Fuc(b1-3)GlcNAc,-0.246
same,glycan array binding signal (z-score),Gal(a1-2)Gal,-0.451

# Part of the list above, as tab-separated lines.
binder	measurement	setting	value
B1	glycan array binding signal (z-score)	[33]	-0.543
same	glycan array binding signal (z-score)	Fuc(a1-4)GlcNAc	-1.01
